# Results are given in words; binding and its absence hold for the method and conditions named. In cells and extracts the contact can be indirect. A yes stands for co-enrichment or nearness to the bait. Other partners may have been found. No binding means not detected with the bait.
# Protein sequences, listed by entry. Tags and fused reporters are not part of them.
# UniProt Q9VIF1: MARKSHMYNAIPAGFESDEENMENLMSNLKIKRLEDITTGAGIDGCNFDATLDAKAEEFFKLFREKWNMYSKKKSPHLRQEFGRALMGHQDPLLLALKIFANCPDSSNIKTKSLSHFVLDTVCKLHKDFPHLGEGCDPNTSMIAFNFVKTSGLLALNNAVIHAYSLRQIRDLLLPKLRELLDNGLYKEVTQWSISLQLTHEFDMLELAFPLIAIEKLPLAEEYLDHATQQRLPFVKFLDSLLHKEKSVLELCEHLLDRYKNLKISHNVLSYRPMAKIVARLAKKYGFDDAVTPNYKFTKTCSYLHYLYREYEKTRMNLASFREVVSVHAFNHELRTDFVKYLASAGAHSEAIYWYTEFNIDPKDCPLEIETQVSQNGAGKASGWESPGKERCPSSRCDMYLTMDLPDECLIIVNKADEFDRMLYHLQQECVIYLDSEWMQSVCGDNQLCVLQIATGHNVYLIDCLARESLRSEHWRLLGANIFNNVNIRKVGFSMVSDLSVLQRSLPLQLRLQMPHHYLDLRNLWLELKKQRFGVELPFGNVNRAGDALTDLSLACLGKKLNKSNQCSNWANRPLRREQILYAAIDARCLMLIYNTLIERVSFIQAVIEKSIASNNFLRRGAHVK
# B1: Piwi, endogenous in ovaries (protein, UniProt Q9VKM1 1-843)
# chain: MADDQGRGRRRPLNEDDSSTSRGSGDGPRVKVFRGSSSGDPRADPRIEASRERRALEEAPRREGGPTERKPWGDQYDYLNTRPAELVSKKGTDGVPVMLQTNFFRLKTKPEWRIVHYHVEFEPSIENPRVRMGVLSNHANLLGSGYLFDGLQLFTTRKFEQEITVLSGKSKLDIEYKISIKFVGFISCAEPRFLQVLNLILRRSMKGLNLELVGRNLFDPRAKIEIREFKMELWPGYETSIRQHEKDILLGTEITHKVMRTETIYDIMRRCSHNPARHQDEVRVNVLDLIVLTDYNNRTYRINDVDFGQTPKSTFSCKGRDISFVEYYLTKYNIRIRDHNQPLLISKNRDKALKTNASELVVLIPELCRVTGLNAEMRSNFQLMRAMSSYTRMNPKQRTDRLRAFNHRLQNTPESVKVLRDWNMELDKNVTEVQGRIIGQQNIVFHNGKVPAGENADWQRHFRDQRMLTTPSDGLDRWAVIAPQRNSHELRTLLDSLYRAASGMGLRIRSPQEFIIYDDRTGTYVRAMDDCVRSDPKLILCLVPNDNAERYSSIKKRGYVDRAVPTQVVTLKTTKNRSLMSIATKIAIQLNCKLGYTPWMIELPLSGLMTIGFDIAKSTRDRKRAYGALIASMDLQQNSTYFSTVTECSAFDVLANTLWPMIAKALRQYQHEHRKLPSRIVFYRDGVSSGSLKQLFEFEVKDIIEKLKTEYARVQLSPPQLAYIVVTRSMNTRFFLNGQNPPPGTIVDDVITLPERYDFYLVSQQVRQGTVSPTSYNVLYSSMGLSPEKMQKLTYKMCHLYYNWSGTTRVPAVCQYAKKLATLVGTNLHSIPQNALEKKFYYL
# B2: Hen1, endogenous in ovaries (enzyme, UniProt Q7K175 1-391)
# chain: MFSHKFICGSLTKMTETGITFDPPVYEQRYCATIQILEDARWKDQIKKVVEFGCAEMRFFQLMRRIETIEHIGLVDIDKSLLMRNLTSVNPLVSDYIRSRASPLKVQILQGNVADSSEELRDTDAVIAIELIEHVYDDVLAKIPVNIFGFMQPKLVVFSTPNSDFNVIFTRFNPLLPNGFRHEDHKFEWSRDEFKNWCLGIVEKYPNYMFSLTGVGNPPKEYESVGPVSQIAIFVRKDMLEMQLVNPLVSKPNIDKESIPYKLIHTVEYPFYVDTRTEKEKLWTEVQIELQRFKRQFESSEIEEGTYQDTCNMPIAFLLDRLEHVGATKERIEELLLENNLTVENECVLIVSSDQESEWSDPYKFSDRSSQDDALVDQEQEEERWDQGPES
# B3: Papi, endogenous in ovaries (protein, UniProt Q9VQ91 1-576)
# chain: MLRNTPFGATPTYKLLLGFGLCSLGGAMLYAYFKTRNDEEEADSGGQRPASGIRGQTEEQKPQKEVCLKIVVDNEHVPLIMGRGGSNIKLIEEKTLAKIRLRDKDSGHKFCDISGVPDAVKAARALLIKEIERAPVVKVELQVPQRLASKINGRGGELLQEIRSSSLAKLNIDLNGRNGKAKITIIGNQKQVNIARKMLDDQIEEDEELVRSMEEVEQRREPRRSPTNSIASSMYSSQTSLSSHTQPRDKLMASKGEGKPMEVYVSAVASPTKFWVQLIGPQSKKLDSMVQEMTSYYSSAENRAKHVLTAPYVGQIVAAVFKFDEKWYRAEIVDIMPNQYNPKEQVIDLYFVDYGDSEYISPADICELRTDFLTLRFQAVECFLANVKSTIQTEPITWPKSSIAKFEELTEVAHWRKLIARVVTYKERPRATTAVSAAAKEGTPLPGVELFDPADNSELNIADLMITQGFALPLDDSYPVRSRSSTPSSNSDSTIEELCVSNPVTPLTPHSPMSMSIDVDSITQAENEHLAQQLQHLQHKLNGNDIKNINPAKLTATDLENGNNNNASTTNGASAH
# Target: Nibbler (Nbr), endogenous, with a Myc tag knocked in (Nbr^KI-Myc) (Drosophila melanogaster (endogenous in fly ovaries)) (UniProt Q9VIF1)
# Test: affinity purification with mass spectrometry; anti-c-Myc agarose beads on lysate of 400 ovaries of Nbr^KI-Myc against control flies; 2 h at 4°C, washed with TBS; LC-MS/MS; filter: more than ten peptides and PSM more than 5-fold enriched
row,Binder,binding
1,B1,binds
2,B2,no binding
3,B3,no binding
